For at least one compound, name, drawing or mass did not settle the structure.
System: juvenile (prepubertal) zebrafish
Assay: In vivo effect of exposure to estradiol on gene expression (real-time PCR)
Details: immersion, 5 μg/liter (18 nM), 3 days

`C[C@]12CC[C@@H]3c4ccc(O)cc4CC[C@H]3[C@@H]1CC[C@@H]2O` [estradiol] was tested, and the “expression level of tac3a” value was “significant increase”, the “expression of gnrh3, kiss2 and kiss1” value was “enhanced expression” and the “expression of tac3ra, tac3rb and kiss1ra” value was “significant increase”.

Reference: patent US20150072933A1, “NOVEL SEQUENCES FOR THE CONTROL OF REPRODUCTION IN FISH” (Yissum Research Development Company of the Hebrew …, priority 2011, published 2015)
